## Library screening results

The values are deposited in ChEMBL (CHEMBL3988442, “University of Dundee, Small-Polar-MMV Screening Library” (2021)).

Results are given as percent effect. The controls that fix the scale are not given in the record; negative values are as filed. Compounds were drawn at random from those tested, without regard to their results.

A: 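Whole-cell assay for inhibitors of Mycobacterium tuberculosis growth, labelled Cornell in the record; the read-out is not stated. The concentration is filed as 10 mM, unlikely as a test dose, so the dose is not known. Higher means stronger inhibition (inferred from two other growth screens of the library). Size under these conditions: about 53,000 compounds, about 900 of them at 50% or above in at least one test.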
B: 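Assay on Mycobacterium tuberculosis, filed only as a heat shock assay from Cornell; the read-out is not stated. The concentration is filed as 10 mM, unlikely as a test dose, so the dose is not known. Higher reads as stronger inhibition (inferred: compounds with an IC50 in retests scored well above the rest). Size under these conditions: about 69,000 compounds, about 930 of them at 50% or above in at least one test.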

SMILES: CN(C)c1ccc(C(=O)NCc2ccc(N3CCOCC3)cc2)cn1
A: -8.822%
B: -34.65%

SMILES: CCCC1COCCN1Cc1ccc(NC(C)=O)cc1 (stereo not shown)
A: 24.31%
B: -12.84%

SMILES: CSCCC(NC(=O)C1CC1)C(=O)N(C)Cc1ccsc1 (stereo not shown)
A: -26.09%
B: -18.23%

SMILES: O=C(N[C@@H]1CCN(Cc2ccc(F)cc2F)C[C@H]1O)c1cccnc1
A: -23.67%
B: -17.22%

SMILES: O=C(NCCCN1CCOCC1)c1ccc(Cl)cc1Cl
A: 2.297%
B: 3.855%

SMILES: Cc1c[nH]nc1C1CCCN1Cc1ncc[nH]1.O=CO (stereo not shown)
A: 14%
B: -1.504%

SMILES: c1cncc(-c2noc(CNc3ncnc4c3CCNCC4)n2)c1
B: -15.9%

SMILES: O=C(Cn1nc2ccccc2n1)N1CCCC(O)(CN2CCCC2)C1 (stereo not shown)
B: -159.7%

SMILES: COCC(NC(=O)c1ccoc1)c1ccc(C)o1 (stereo not shown)
A: 25.28%
B: 6.547%

SMILES: O=C(CCOc1cccc(Cl)c1)N1CCN(c2cnccn2)CC1
B: -10.83%

SMILES: CN(C)S(=O)(=O)c1ccc(=O)n(CC2CCCO2)c1 (stereo not shown)
B: 6.877%

SMILES: CC(Cn1ccnc1)NC(=O)N1CCN(Cc2ccncc2)CC1 (stereo not shown)
B: -30.43%

SMILES: N#Cc1ccccc1N1CCCN(C(=O)CCc2cccs2)CC1
B: 12.7%

SMILES: O=C(O)C(F)(F)F.[H][C@@]12CCN(CC3CCC3)C[C@]1([H])[C@H](C(=O)NC1CC1)CCO2
A: -26.99%
B: -0.426%

SMILES: Cc1nc(N2CCCC2)nc2c1CCN(Cc1ccsc1)CC2.O=C(O)C(F)(F)F
A: 72.79%
B: 100.4%

SMILES: O=C(c1nnn(-c2ccc(Cl)cc2)n1)N(CCO)Cc1ccccc1
A: 29.98%
B: -45.2%

SMILES: CC(C(=O)O)N1CCc2onc(-c3ccc4c(c3)OCO4)c2C1 (stereo not shown)
B: -5.114%

SMILES: CC(NC(=O)CCc1nc(C(C)(C)C)no1)c1nnc2n1CCC2 (stereo not shown)
B: 16.28%

SMILES: Cn1ccnc1CN1CC2(CCN(Cc3ccncc3)C2)C1
A: -13.9%
B: -9.4%

SMILES: O=C(NCC1(O)CCSC1)c1ccoc1 (stereo not shown)
A: -58.16%
B: 3.588%

SMILES: c1ccc(-n2cc(CNC3CCc4ncnn4C3)nn2)cc1 (stereo not shown)
B: 17.43%

SMILES: Cc1ccc(-c2nccn2-c2ccc(OC3CCN(C)CC3)cc2)o1
B: -29.42%

SMILES: O=C1CSC(c2ccc(F)c(Cl)c2)c2c(n(C3CCOCC3)[nH]c2=O)N1 (stereo not shown)
A: -31.04%
B: -17.56%

SMILES: O=S1(=O)[C@@H](c2ccccc2)[C@H](CO)CN1c1ccccc1
A: 17.71%
B: -7.493%

SMILES: CCc1nnc(C(C)N2CCC(NC(=O)C3CCCCC3)CC2)o1 (stereo not shown)
A: -14.55%
B: -1.94%

SMILES: [H][C@@]12CCN(S(=O)(=O)c3cccnc3)C[C@]1(c1nnc(C)o1)CCO2
A: -3.654%
B: 18.46%

SMILES: O=C1NCc2ccc(NC(=O)C3CCCN3c3nccs3)cc21 (stereo not shown)
A: 10.34%
B: 31.49%

SMILES: CCc1nc(C(=O)N(CC)CC(=O)N(C)C)nn1-c1ccccc1Cl
A: 10.69%
B: 8.166%

SMILES: COCC(C)Nc1ccc(-c2nc(Cc3ccc(F)cc3)no2)cn1 (stereo not shown)
A: -9.773%
B: -4.065%

SMILES: O=C(O)C(F)(F)F.[H][C@]12C[C@H](C(=O)NC)N(S(C)(=O)=O)[C@@]1([H])CN(C(=O)c1cccnc1)C2
A: 43.56%
B: -10.34%

SMILES: Cc1cc(C)nc(C2CCN(C(=O)CO)CC2)n1
A: -48.82%
B: 2.227%

SMILES: CN(Cc1ccc([S+](C)[O-])cc1)c1cncc(Br)c1 (stereo not shown)
A: -19.68%
B: -8.885%

SMILES: CCCc1c(C2CCOC(C)(C)C2)nc(N)c(C#N)c1-c1cnn(C)c1 (stereo not shown)
A: 17.2%
B: 2.866%

SMILES: Cc1nc(-c2cc(F)c3c(c2)CC(CN)O3)c[nH]1 (stereo not shown)
A: 0.7092%
B: 24.5%

SMILES: O=C(O)C(F)(F)F.O=C(O)C(F)(F)F.[H][C@@]12CCCO[C@]1([H])[C@H](NS(C)(=O)=O)CN(Cc1ccncc1)C2
A: 13.75%
B: -28.41%

SMILES: COc1ccc(Cl)cc1NCC(=O)N(Cc1ccccn1)C1CC1
B: -17.79%

SMILES: [H][C@]12CCN(C(C)=O)CC[C@@]1([H])S(=O)(=O)N(Cc1cccc(Cl)c1)C2
A: 13.57%
B: -2.521%

SMILES: Cc1c(NC(=O)c2ccc(Br)cc2)c(C(=O)N(C)C)nn1C
B: 5.328%

SMILES: C[C@@H]1CN(c2cccnn2)CC[C@@]1(O)C1CCOCC1
A: -7.399%
B: 13.95%

SMILES: CC1CCCN(C(=O)Cn2cc(I)cn2)C1 (stereo not shown)
B: 24.63%

SMILES: CCOC(=O)C1CN(S(=O)(=O)CC)Cc2ncn(CC)c21 (stereo not shown)
A: -1.078%
B: -22.77%

SMILES: COc1cc(Br)c(CNc2ccn(CCC(N)=O)n2)cc1OC
B: -99.01%

SMILES: CC(=O)N1CCC(=O)N(C2CCCC2)Cc2ccccc21
A: -4.981%
B: 18.8%

SMILES: Cc1c[nH]nc1C1CCCN(C(=O)c2c(C)noc2C)C1 (stereo not shown)
B: -1.577%

Repeated from the top, 4 entries:

CN(C)c1ccc(C(=O)NCc2ccc(N3CCOCC3)cc2)cn1 gave A: -8.822%; B: -34.65%.
CCCC1COCCN1Cc1ccc(NC(C)=O)cc1 (stereo not shown) gave A: 24.31%; B: -12.84%.
CSCCC(NC(=O)C1CC1)C(=O)N(C)Cc1ccsc1 (stereo not shown) gave A: -26.09%; B: -18.23%.
O=C(N[C@@H]1CCN(Cc2ccc(F)cc2F)C[C@H]1O)c1cccnc1 gave A: -23.67%; B: -17.22%.